Laboratory results taken from PubChem BioAssay AID624291 (National Center for Advancing Translational Sciences (NCATS), 2012).
Screen size: about 350,000 compounds; about 220 (0.063%) were called active. Inconclusive results, whose numbers are uncertain, are shown with a selection of clear calls. Calls follow the shape of the dose curve; as a rule, active = well fitted activation curve with a large enough effect; inconclusive = small, poorly fitted or top-dose-only effect; inactive = no such curve, though single readings can be large or run the other way. Potencies beside an inconclusive call are fits to weak or partial responses and may not hold up.

Assay: qHTS for Activators of Integrin-Mediated Alleviation for Muscular Dystrophy; also: nearly all actives have a fitted effect of over 60% in size
Details: alpha7betagal myoblasts, beta-gal FDG fluorescence, 48 h; series mostly up to 38.3 µM
Outline: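 Alpha7betagal+/- myoblasts (passage 13) were plated 16-24 hr, then exposed to compounds (1:260 dilution of DMSO stock) for 48 hours at 37C. After MPER lysis, β-galactosidase reporter activity was read as FDG fluorescence (ex 480/em 540) after 30 minutes.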
Potency is read from the fitted curve at half-maximal effect.

| Compound | Potency |
| --- | --- |
| O=C(Cn1cnc([N+](=O)[O-])n1)NCc1ccccc1 | inactive |
| OC(COC(c1ccccc1)c1ccccc1)CN1CCc2ccccc2C1 (stereo not given) | inactive |
| CN(C)S(=O)(=O)N1CCN(CC(O)COc2ccc(-c3ccccc3)cc2)CC1 (stereo not given) | inactive |
| COc1cc(N/C(N)=N/c2nc(C)cc(C)n2)cc(OC)c1 | inconclusive: 28.2 µM [activator, single point] |
| O=C(CCCCCNc1nc(=S)[nH]c2ccccc12)NCCC1=CCCCC1 | inactive |
| CCCc1nnc(NC(=O)CCC(=O)Nc2ccc(Cl)cc2)s1 | inconclusive: 3.55 µM [activator, single point] |
| Cc1c(Cl)cccc1NC(=S)C(=C([O-])c1ccc(Cl)s1)[n+]1ccccc1 | inconclusive: 3.55 µM [activator, single point] |
| CO/N=C/C(=N\Nc1ccccc1)C(=O)c1ccccc1 | inconclusive: 0.501 µM [activator, full curve, poor fit] |
| CC(C)(Oc1ccc(Cl)cc1)C(=O)O/N=C(\N)c1ccncc1 | inconclusive: 3.16 µM [activator, partial curve, poor fit] |
| COc1ccc(CNC(=O)c2c(C)oc3c2C(=O)c2ccccc2C3=O)cc1 | inactive |
| O=C(O)c1ccc(N2CCCCCC2)c(N2C(=O)c3ccccc3C2=O)c1 | inactive |
| CS(=O)(=O)CCC(C(=O)Nc1ccc2c(c1)OCO2)N1Cc2ccccc2C1=O (stereo not given) | inconclusive: 3.55 µM [activator, single point] |
| O=C(CCNC(=O)c1ccc(Cl)cc1)Nc1ncccc1O | inconclusive: 5.01 µM [activator, single point] |
| O=C1C(=Cc2ccccc2O)SC(=S)N1CCCN1CCOCC1 | inactive |
| Cc1nnsc1C(=O)Nc1cc(Cl)ccc1Cl | inconclusive: 5.01 µM [activator, single point] |
| O=C/C=C/c1c(-c2ccccc2)cc2oc3ccccc3cc1-2 | inactive |
| CCOC(=O)CSc1n[nH]c(NS(=O)(=O)c2ccccc2C(F)(F)F)n1 | inconclusive: 10 µM [activator, single point] |
| FC(F)(F)c1ccc(C2Nc3cccc4cccc(c34)N2)cc1 | inactive |
| CC(=O)c1ccc(N(CC(=O)NC2CCCC2)C(=O)CNC(=O)c2ccco2)cc1 | inconclusive: 2.82 µM [activator, single point] |
| NNc1nc2sc3c(c2c(=O)[nH]1)CCc1ccccc1-3 | inactive |
| Cc1occc1C(=O)NNC(=S)NC(=O)COc1ccc(Cl)cc1Cl | inactive |
| COc1ccc(S(=O)(=O)/C(C#N)=C/Nc2ccccc2F)cc1 | inconclusive: 14.1 µM [activator, single point] |
| COc1cccc(-c2c(C(=O)N/N=C/c3ccsc3)nnn2-c2nonc2N)c1 | inactive |
| COc1ccc(CC(=O)N/N=C(\C)CC(=O)NCc2ccco2)cc1OC | inconclusive: 28.2 µM [activator, single point] |

| Compound | Potency |
| --- | --- |
| CCOCCCNCc1c(Cl)cccc1Cl | inconclusive: 5.01 µM [activator, single point] |
| CN1CCc2c(OCc3ccc(F)cc3)cccc2C1=O | inconclusive: 10 µM [activator, single point] |
| O=C(NCC(=O)N(c1cccc(F)c1)C(C(=O)NC1CCCC1)c1cccnc1)c1ccco1 (stereo not given) | inconclusive: 2 µM [activator, partial curve, poor fit] |
| O=C(Nc1cccc(NC(=O)c2cccs2)c1)c1ccc(Br)cc1 | inconclusive: 28.2 µM [activator, single point] |
| O=C(CSc1ncnc2nc[nH]c12)Nc1nnc(SCc2ccc(Cl)c(Cl)c2)s1 | inconclusive: 31.6 µM [activator, single point] |
| COc1ccc(C)cc1NC(=O)Nc1ccc2c(c1)CCC2 | inconclusive: 3.98 µM [activator, single point] |
| O=C(Nc1ccccc1)c1ccc(-c2ccc(Br)cc2)o1 | inconclusive: 5.62 µM [activator, partial curve, poor fit] |
| CCOc1ccccc1NS(=O)(=O)c1c(C)[nH]c(C)c1C(=O)N1CCCCC1 | inconclusive: 15.8 µM [activator, single point] |
| O=C(Nc1ccccc1C(=O)Nc1ccccn1)c1ccc([N+](=O)[O-])cc1 | inactive |
| COCCN(C(=O)CSc1nc2ccccc2o1)c1c(N)n(Cc2ccccc2)c(=O)[nH]c1=O | inconclusive: 28.2 µM [activator, single point] |
| Nc1c(N(CCO)C(=O)COc2ccc(Cl)cc2)c(=O)[nH]c(=O)n1Cc1ccccc1 | inconclusive: 2.82 µM [activator, full curve, poor fit] |
| CCn1c(Cc2ccccc2)nnc1SCC(=O)Nc1ccccc1O | inconclusive: 1.58 µM [activator, partial curve, poor fit] |
| CC(=O)Nc1ccc2nc(-c3ccccn3)[nH]c2c1 | inactive |
| CCN1CCN(Cc2ccc(NC(=O)c3cc(NC(=O)c4nccnc4N)cc(OC)c3)cc2C(F)(F)F)CC1 | inactive |
| Cc1cc(C)cc(OCC(O)CN2CCC(CN3C(=O)c4cccc5cccc(c45)C3=O)CC2)c1 (stereo not given) | inactive |
| Cc1sc2ncnc(N3CCN(S(=O)(=O)c4ccc(F)cc4)CC3)c2c1C | inconclusive: 2.82 µM [activator, single point] |
| COc1ccc(NC(=O)CCSCCC(=O)Nc2ccc(OC)cc2OC)c(OC)c1 | inconclusive: 28.2 µM [activator, single point] |
| Cc1ccc(NC(=O)CN(C)C(=O)c2ccc(S(=O)(=O)N(C)c3ccccc3)cc2)cc1 | inconclusive: 1.41 µM [activator, partial curve, poor fit] |
| Cc1cc(N)n(-c2nc3ccccc3s2)n1 | inconclusive: 2.82 µM [activator, partial curve, poor fit] |
| CC(C)C(NS(=O)(=O)c1cccc2nsnc12)C(=O)NC1CCCCC1C (stereo not given) | inconclusive: 2 µM [activator, partial curve, poor fit] |
| COC(=O)c1ccc(COc2ccc(/C=C/C(=O)c3ccc(OC)c(CSCC(=O)O)c3)cc2OC)cc1 | inconclusive: 2.82 µM [activator, single point] |
| CCCCN1C(=O)C(NC(=O)C2CC2)(C(F)(F)F)C2=C1CC(C)(C)CC2=O (stereo not given) | inconclusive: 17.8 µM [activator, single point] |
| O=C(CSc1nnc(-c2ccccc2F)o1)NC1CC1 | inconclusive: 28.2 µM [activator, single point] |
| CCc1ccc(C(N)=S)cc1 | inactive |

As a working copy, some entries already given:

| Compound | Potency |
| --- | --- |
| O=C(Nc1ccccc1)c1ccc(-c2ccc(Br)cc2)o1 | inconclusive: 5.62 µM [activator, partial curve, poor fit] |
| CCOc1ccccc1NS(=O)(=O)c1c(C)[nH]c(C)c1C(=O)N1CCCCC1 | inconclusive: 15.8 µM [activator, single point] |
| O=C(Nc1ccccc1C(=O)Nc1ccccn1)c1ccc([N+](=O)[O-])cc1 | inactive |

(further entries)

| Compound | Potency |
| --- | --- |
| Cc1c(OCC(=O)N(C)c2ccccc2)ccc2c3c(c(=O)oc12)CCC3 | inconclusive: 4.47 µM [activator, single point] |
| Cc1oc(C(C)(C)C)cc1C(=O)Nc1ccc2c(c1)OCO2 | inconclusive: 28.2 µM [activator, single point] |
| CC(=O)c1nc(N2C(=O)CC(Cc3cc(C)cc(C)c3)C2=O)sc1C (stereo not given) | inactive |
| O=C(Nc1cc(Cl)ccn1)C1(c2ccccc2)CC1(Cl)Cl (stereo not given) | inconclusive: 5.01 µM [activator, single point] |
| O=C1C=CC2(O[C@H](c3ccccc3)[C@@H](c3ccccc3)O2)[C@H](Sc2ccccc2O)C1 | inactive |
| CC(C)(C)Nc1nc(-c2ccc3c(c2)CCN3C(=O)C2CC2)cs1 | inconclusive: 2.24 µM [activator, full curve, poor fit] |
| Cc1ccc(S(=O)(=O)/N=C(/Nc2cccc3ccccc23)c2ccc(F)cc2)cc1 | inconclusive: 17.8 µM [activator, single point] |
| O=C(CN(C(=O)c1csnn1)c1cccc(Cl)c1)NC1CCCC1 | inconclusive: 4.47 µM [activator, full curve] |
| O=C1OCCC1Sc1nnc(-c2ccc(Cl)cc2Cl)o1 (stereo not given) | inactive |
| CCOc1ccc2[nH]c3c(NCCN(CC)CC)ncnc3c2c1 | inconclusive: 28.2 µM [activator, single point] |
| C=CCN(C(=O)c1cc(C)cc(C)c1)C1(C(=O)Nc2ccccc2)CCN(C(C)C)CC1 | inconclusive: 7.08 µM [activator, partial curve, poor fit] |
| CCOc1nc(NCCO)nc(Nc2cc(Cl)ccc2OC)n1 | inconclusive: 5.01 µM [activator, single point] |
| O=C(CNc1ccc(C(F)(F)F)cc1[N+](=O)[O-])OCC(=O)c1ccccc1 | inactive |
| C1=Cc2ccccc2Nc2ccccc21 | inconclusive: 2.82 µM [activator, partial curve, poor fit] |
| CCCCN1C(=O)/C(=C2/Sc3ccc(OC)cc3N2CC)SC1=S | inconclusive: 31.6 µM [activator, partial curve, poor fit] |
| O=C(N/N=C/c1ccc(-c2cccc([N+](=O)[O-])c2)o1)c1ccc([N+](=O)[O-])cc1 | inactive |
| C(=NN=C1c2ccccc2-c2ccccc21)c1ccc2c(c1)OCO2 | inconclusive: 12.6 µM [activator, single point] |
| Cc1cc(OCC(=O)O/N=C(\N)c2ccccc2)cc(C)c1Cl | inconclusive: 11.2 µM [activator, single point] |
| Cc1ccc(Cl)cc1N1CCN(C(=O)Cn2ccc3ccccc3c2=O)CC1 | inactive |
| O=C(Nc1ccccc1Cl)c1cc[n+]([O-])cc1 | inconclusive: 0.501 µM [activator, full curve, poor fit] |
| CCS(=O)(=O)N1CCN(c2ncnc3sc(C)c(C)c23)CC1 | inactive |
| N#Cc1ccc(-c2ccc(OCC(O)CN3CCOCC3)cc2)cc1 (stereo not given) | inactive |
